The text below walks through data of PMC6397164.

Protein sequences, listed by entry. Tags and fused reporters are not part of them.
UniProt P06241: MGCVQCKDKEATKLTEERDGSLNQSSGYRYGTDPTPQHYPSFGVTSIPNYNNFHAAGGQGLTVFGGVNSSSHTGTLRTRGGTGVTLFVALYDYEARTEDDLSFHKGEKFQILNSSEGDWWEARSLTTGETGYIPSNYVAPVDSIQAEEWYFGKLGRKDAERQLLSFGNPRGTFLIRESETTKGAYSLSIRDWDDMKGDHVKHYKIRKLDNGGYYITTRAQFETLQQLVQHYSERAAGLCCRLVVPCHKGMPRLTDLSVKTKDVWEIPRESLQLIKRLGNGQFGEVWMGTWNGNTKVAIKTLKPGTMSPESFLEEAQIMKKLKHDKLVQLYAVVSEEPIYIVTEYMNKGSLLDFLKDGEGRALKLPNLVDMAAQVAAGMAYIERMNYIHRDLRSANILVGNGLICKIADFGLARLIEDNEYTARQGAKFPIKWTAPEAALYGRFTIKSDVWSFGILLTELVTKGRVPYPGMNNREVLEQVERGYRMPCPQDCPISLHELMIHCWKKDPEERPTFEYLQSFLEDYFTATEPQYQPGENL

No constants are given. Whether binding was seen depends on the method and setting. Binding seen in cells or lysates may run through a third protein. Some entries that bind do so weakly or less than the wild type. Tags and fused reporters may be left off the sequences shown.

In assay [1] the target is T1, Flag-tagged 6-phosphogluconate dehydrogenase (Flag-6PGD) (human) (UniProt P52209).
T1 sequence: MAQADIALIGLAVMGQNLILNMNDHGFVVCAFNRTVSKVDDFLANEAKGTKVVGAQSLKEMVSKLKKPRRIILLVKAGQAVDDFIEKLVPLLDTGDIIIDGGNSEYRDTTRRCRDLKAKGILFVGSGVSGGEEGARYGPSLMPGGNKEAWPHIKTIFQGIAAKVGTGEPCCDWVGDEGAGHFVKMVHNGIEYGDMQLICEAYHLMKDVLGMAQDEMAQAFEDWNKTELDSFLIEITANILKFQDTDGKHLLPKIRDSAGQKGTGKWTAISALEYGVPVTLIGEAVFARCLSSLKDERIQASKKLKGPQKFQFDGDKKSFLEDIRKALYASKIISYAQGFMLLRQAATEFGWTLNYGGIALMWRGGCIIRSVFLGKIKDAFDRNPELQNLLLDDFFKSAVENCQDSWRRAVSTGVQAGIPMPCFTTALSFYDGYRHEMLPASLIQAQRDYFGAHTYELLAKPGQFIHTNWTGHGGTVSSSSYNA
The assay is described as follows: co-IP; U87/EGFR cells transiently co-transfected with HA-Fyn and Flag-6PGD, treated with or without EGF (100 ng/ml) for 30 min; immunoprecipitation and immunoblotting with the indicated antibodies. On the technique in general: In western blotting, separated proteins are transferred to a membrane and probed.

Assay [2] addresses T1, Flag-tagged 6-phosphogluconate dehydrogenase (Flag-6PGD) (human). As to the kind of experiment: cross-linking; lysate of U87/EGFR cells transfected with Flag-6PGD, with or without EGF; glutaraldehyde 0.025%, room temperature, 15 min, stopped with Tris-HCl pH 7.5.
Assay [3] has the same target. The assay is described as follows: co-IP; U87/EGFR cells co-transfected with Flag-6PGD and HA-6PGD, in the absence or presence of EGF; HA-6PGD precipitated by Flag-6PGD.

Regarding “epidermal growth factor receptor (EGFR) (from UniProt P00533 25-1210)”, the binding result in assay [1] is “no binding”.

Take “HA-Fyn (from UniProt P06241 1-537) (enzyme)”: the binding entry in assay [1] is listed as “binds”.

B1: Flag-tagged 6-phosphogluconate dehydrogenase (Flag-6PGD) (enzyme, UniProt P52209 1-483)
chain: MAQADIALIGLAVMGQNLILNMNDHGFVVCAFNRTVSKVDDFLANEAKGTKVVGAQSLKEMVSKLKKPRRIILLVKAGQAVDDFIEKLVPLLDTGDIIIDGGNSEYRDTTRRCRDLKAKGILFVGSGVSGGEEGARYGPSLMPGGNKEAWPHIKTIFQGIAAKVGTGEPCCDWVGDEGAGHFVKMVHNGIEYGDMQLICEAYHLMKDVLGMAQDEMAQAFEDWNKTELDSFLIEITANILKFQDTDGKHLLPKIRDSAGQKGTGKWTAISALEYGVPVTLIGEAVFARCLSSLKDERIQASKKLKGPQKFQFDGDKKSFLEDIRKALYASKIISYAQGFMLLRQAATEFGWTLNYGGIALMWRGGCIIRSVFLGKIKDAFDRNPELQNLLLDDFFKSAVENCQDSWRRAVSTGVQAGIPMPCFTTALSFYDGYRHEMLPASLIQAQRDYFGAHTYELLAKPGQFIHTNWTGHGGTVSSSSYNA
B1: the binding entry in assay [2] and in assay [3] was “binds” each time.
